The assay has as its target T1, Glue (SBP-HA-CBP)-tagged WDTC1 (mouse) (UniProt Q80ZK9).
T1 sequence: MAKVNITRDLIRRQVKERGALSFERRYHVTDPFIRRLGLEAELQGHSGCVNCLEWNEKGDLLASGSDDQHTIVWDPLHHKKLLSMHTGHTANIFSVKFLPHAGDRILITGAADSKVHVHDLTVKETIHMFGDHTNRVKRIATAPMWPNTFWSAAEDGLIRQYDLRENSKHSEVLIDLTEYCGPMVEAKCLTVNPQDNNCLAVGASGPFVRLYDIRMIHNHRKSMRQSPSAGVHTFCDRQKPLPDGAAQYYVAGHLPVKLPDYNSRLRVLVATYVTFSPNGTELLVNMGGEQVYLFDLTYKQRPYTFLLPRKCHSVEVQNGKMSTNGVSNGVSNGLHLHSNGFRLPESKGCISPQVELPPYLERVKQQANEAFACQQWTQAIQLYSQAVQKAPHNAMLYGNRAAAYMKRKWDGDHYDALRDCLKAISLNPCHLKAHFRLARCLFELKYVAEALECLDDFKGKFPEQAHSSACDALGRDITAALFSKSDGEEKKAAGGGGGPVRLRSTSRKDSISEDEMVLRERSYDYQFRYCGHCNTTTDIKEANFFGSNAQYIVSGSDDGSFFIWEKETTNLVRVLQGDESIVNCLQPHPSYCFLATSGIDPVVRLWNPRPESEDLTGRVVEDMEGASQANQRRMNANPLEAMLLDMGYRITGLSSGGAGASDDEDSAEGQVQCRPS
Kind of assay: affinity purification with mass spectrometry; nuclear extracts of stable HEK293T cells expressing Glue-WDTC1 or vector alone; tandem purification on Strep-Tactin beads (4°C, 1 h, desthiobiotin elution) then calmodulin beads (4°C, 3 h); silver staining and mass spectrometry; two separate experiments.

Amino acid sequences for entries named in this document (tags omitted).
UniProt Q16531: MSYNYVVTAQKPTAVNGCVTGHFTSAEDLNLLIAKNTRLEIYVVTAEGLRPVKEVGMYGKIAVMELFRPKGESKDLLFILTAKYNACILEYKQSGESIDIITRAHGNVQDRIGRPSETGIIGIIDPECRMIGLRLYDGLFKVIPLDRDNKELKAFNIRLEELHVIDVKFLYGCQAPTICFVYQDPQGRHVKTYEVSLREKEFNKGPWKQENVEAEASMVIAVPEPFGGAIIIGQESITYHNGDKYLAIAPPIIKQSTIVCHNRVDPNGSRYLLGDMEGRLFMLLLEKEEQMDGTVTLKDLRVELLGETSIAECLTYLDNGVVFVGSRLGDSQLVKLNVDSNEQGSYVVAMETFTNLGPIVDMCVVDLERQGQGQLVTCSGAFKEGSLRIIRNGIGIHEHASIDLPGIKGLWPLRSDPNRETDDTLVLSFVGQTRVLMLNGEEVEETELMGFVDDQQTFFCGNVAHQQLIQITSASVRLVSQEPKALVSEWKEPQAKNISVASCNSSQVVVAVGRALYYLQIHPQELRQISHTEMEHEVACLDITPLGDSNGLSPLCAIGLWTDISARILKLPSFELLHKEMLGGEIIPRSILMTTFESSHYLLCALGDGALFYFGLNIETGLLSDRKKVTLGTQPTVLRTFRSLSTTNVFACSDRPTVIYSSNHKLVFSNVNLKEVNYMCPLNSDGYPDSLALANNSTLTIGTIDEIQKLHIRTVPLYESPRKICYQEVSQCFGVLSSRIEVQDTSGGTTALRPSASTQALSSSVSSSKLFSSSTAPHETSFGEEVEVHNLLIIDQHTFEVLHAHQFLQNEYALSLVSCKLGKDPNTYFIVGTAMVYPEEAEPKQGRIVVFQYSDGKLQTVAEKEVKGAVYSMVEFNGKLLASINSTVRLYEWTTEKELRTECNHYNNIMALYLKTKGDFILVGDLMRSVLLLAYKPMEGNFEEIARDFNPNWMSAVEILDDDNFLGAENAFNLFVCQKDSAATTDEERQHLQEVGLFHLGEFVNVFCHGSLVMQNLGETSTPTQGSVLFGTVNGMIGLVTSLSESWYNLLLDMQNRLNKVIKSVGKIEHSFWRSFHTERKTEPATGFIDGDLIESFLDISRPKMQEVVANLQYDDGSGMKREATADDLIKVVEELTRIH

Results are given in words; binding and its absence hold for the method and conditions named. In cells and extracts the contact can be indirect. A yes stands for co-enrichment or nearness to the bait. Other partners may have been found. Where a sequence is shown, tags or fusion partners need not be part of it.

For two substances, binding results are on record in article PMC10483223.

On to DDB1 (from UniProt Q16531 1-1140), for which the binding entry is on record as “binds”. Next, Hsp70 (human (endogenous in HEK293T)): “binds”.
